# Laboratory results as given in PubChem BioAssay AID651640 (Broad Institute, 2012).
# Screen size: about 350,000 compounds; about 6,000 (1.7%) were called active. The inconclusive results got no clear call from the source; some entries with a clear call stand among them for comparison. No stated cut-off is given here; in the data, active means CPE inhibition above about 20% (passing the limit was not always enough); inconclusive means no clear call, values can overlap the other calls; tested in BHK-21 cells. A structure can be active in one record and inactive in another.
# Test: protection of cells from dengue 2 killing – plate reader, single concentration, primary screen (AID 651640);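 further: 0% = median of neutral control wells and 100% = median of positive control wells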
# Conditions: DENV2-infected cells, cytopathic effect rescue, at 9.99 µM, active compounds read high
row,SMILES,CPE inhibition
1,C[C@@H]1CCCCO[C@H](CN(C)CC2CCCCC2)[C@@H](C)CN([C@H](C)CO)C(=O)c2cc(NC(=O)Nc3ccccc3)ccc2O1,active: 20.5%
2,C/C(=N\N=C(N)N)c1cccc([N+](=O)[O-])c1,inactive: 0.629%
3,C[C@H](CO)N1C[C@H](C)[C@H](CN(C)S(=O)(=O)c2ccc(C#N)cc2)OCc2cnnn2CCCC1=O,inconclusive: 76.8%
4,O=C(NCc1cc(C(F)(F)F)cc(C(F)(F)F)c1)C1CC(c2ccc(C(F)(F)F)cc2)=NO1 (centres undefined),inactive: 10.4%
5,COc1ccc(CN(C)C[C@@H]2OCCCC[C@H](C)Oc3ccc(NC(=O)NC(C)C)cc3C(=O)N([C@@H](C)CO)C[C@@H]2C)cc1,inconclusive: 79.4%
6,CCOCCn1c(CN2CCN(C(c3ccccc3)c3ccccc3)CC2)nc2c1c(=O)n(C)c(=O)n2C,inconclusive: 37%
7,Cc1ncc([N+](=O)[O-])n1CC(=O)Nc1ccccc1Cl,inconclusive: 48.1%
8,NC(=O)c1ccc2c(=O)n3c(-c4cc(Cl)c(N)c(Cl)c4)csc3nc2c1,inconclusive: 32.4%
9,C[N+]1(CC(=O)OC2CCCCCCCCCCC2)CCCC1,inconclusive: 44.8%
10,C[C@H]1CN([C@@H](C)CO)S(=O)(=O)c2ccc(Br)cc2O[C@H]1CN(C)Cc1ccc(F)cc1,active: 40.7%
11,CNC[C@@H]1OCCCC[C@@H](C)Oc2ccc(NS(C)(=O)=O)cc2C(=O)N([C@H](C)CO)C[C@H]1C,inconclusive: 24%
12,C[C@@H]1CN([C@H](C)CO)C(=O)c2cc(NC(=O)Nc3ccc(F)cc3)ccc2O[C@@H](C)CCCCO[C@H]1CN(C)C(=O)NC1CCCCC1,active: 20.8%
13,N#C[C@@H]1[C@H](c2ccccc2)[C@@H](CO)N1C(=O)CN1CCOCC1,inconclusive: 41.7%
14,CCN(Cc1ccccc1)S(=O)(=O)c1c(N)n(C)c(=O)n(C)c1=O,inconclusive: 31.2%
15,Cn1[nH]c2c(c1=O)[C@H](c1ccc(F)cc1)O[C@H](CCc1ccccc1)C2,inconclusive: 26.8%
16,C[C@@H]1CN([C@H](C)CO)S(=O)(=O)c2ccc(C#CCC3CCCC3)cc2O[C@H]1CN(C)Cc1ccc(C(=O)O)cc1,active: 41.8%
17,C[C@H](CO)N1C[C@H](C)[C@H](CN(C)C(=O)NC2CCCCC2)OCCCC[C@H](C)Oc2ccc(NC(=O)Nc3ccc(F)cc3)cc2C1=O,inactive: -0.564%
18,COCC(=O)N1C[C@@H](C)[C@@H](OC)CN(C)C(=O)c2cc(NC(=O)c3ccc(F)cc3)ccc2OC[C@@H]1C,inconclusive: 34.7%
19,COc1ccc(CN(C)C[C@@H]2Oc3ccc(NC(=O)CCN4CCOCC4)cc3C(=O)N([C@@H](C)CO)C[C@H]2C)cc1,active: 20.5%
20,CC=Cc1ccc2n(c1=O)C[C@@H]1[C@@H](CO)[C@H](C(=O)NCCC)N(Cc3cocn3)[C@H]21 (mixture of isomers),inconclusive: 42.1%
21,COc1ccccc1CN1CC(C(=O)NCCn2nc(C)cc2C)CCC1=O (centres undefined),inconclusive: 24.5%
22,O=C(O)/C(=C\c1ccc(Cl)cc1)c1ccc(S(=O)(=O)N2CCCC2)s1,inconclusive: 27.5%

row,SMILES,CPE inhibition
1,CCOc1ccc(N2CC(C(=O)Nc3cccc(S(=O)(=O)N4CCCCC4)c3)CC2=O)cc1 (centres undefined),inactive: 3.56%
2,COc1cc(OC)cc(C(=O)NCC2CCCN(Cc3ccc(SC)cc3)C2)c1 (centres undefined),inconclusive: 42.5%
3,COc1ccc2sc3cccc(NCCN(C)C)c3c(=O)c2c1,inactive: 2.2%
4,CC1C(=NO)C(C)C(c2ccc(N(C)C)cc2)NC1c1ccc(N(C)C)cc1 (centres undefined),inactive: -2.29%
5,CO[C@H]1CN(C)C(=O)c2cc(NC(C)=O)ccc2OC[C@@H](C)N(C(=O)c2ccccn2)C[C@@H]1C,inactive: 16.4%
6,COc1ccccc1CNC(=O)C[C@H]1C[C@@H]2c3cc(NC(=O)Nc4ccc(C(F)(F)F)cc4)ccc3O[C@@H]2[C@H](CO)O1,inconclusive: 32.2%
7,Cc1noc(C)c1S(=O)(=O)N(C)C[C@@H]1OCCCC[C@@H](C)Oc2ccc(NC(=O)NC3CCCCC3)cc2C(=O)N([C@@H](C)CO)C[C@@H]1C,inconclusive: 67.4%
8,CS(=O)(=O)c1ccc(C(=O)OCc2nnc(-c3ccccc3)o2)cc1[N+](=O)[O-],inactive: 8.06%
9,Nc1nc(NCCOCCO)nc(N2CCCCCC2)c1[N+](=O)[O-],inconclusive: 33.3%
10,C[C@@H]1CCCCO[C@@H](CN(C)Cc2ccc(C(F)(F)F)cc2)[C@H](C)CN([C@@H](C)CO)C(=O)c2cc(NC(=O)NC3CCCCC3)ccc2O1,inconclusive: 45.2%
11,CS(=O)(=O)N1CCCCN2[C@H](CO)[C@H](c3ccc(C4=CCCC4)cc3)[C@@H]2C1,active: 29.4%
12,CO[C@H](CN(C)S(=O)(=O)c1cn(C)cn1)[C@H](C)CN(C(=O)Nc1ccc(F)cc1)[C@H](C)CO,inactive: -1.77%
13,O=C(Nc1cccc(S(=O)(=O)N2CCCCCC2)c1)c1ccc2ccccc2n1,active: 21.6%
14,CCOC(=O)/C=C/C(=O)N1CCN(C(=O)/C=C/C(=O)OCC)CC1,inconclusive: 38.6%
15,O=C(Cc1ccccc1)Nc1ccc(NC(=O)c2ccccc2)nc1,inconclusive: 30.1%
16,CN(C)CCCNC(=O)C[C@H]1CC[C@@H]2[C@@H](COc3ccc(NC(=O)c4cccc(F)c4)cc3C(=O)N2C)O1,active: 41.5%
17,C[C@H]1CN([C@@H](C)CO)C(=O)c2cc(NC(=O)NC3CCCCC3)ccc2O[C@@H]1CN(C)S(=O)(=O)c1ccc(Cl)cc1,inactive: 3.11%
18,CCC(=O)N(C)C[C@@H]1Oc2ncc(Br)cc2C(=O)N([C@H](C)CO)C[C@H]1C,active: 28.6%
19,CCCNC(=O)N1[C@H](CO)[C@H](c2ccccc2)[C@@H]1CNC(=O)C1CCCC1,active: 22.1%
20,CCCC[C@@H]1Cc2[nH][nH]c(=O)c2[C@@H](c2ccc(Cl)cc2)O1,inconclusive: 24.6%
21,COCC(=O)N(C)C[C@H]1Oc2cc(C#CCN(C)C)ccc2S(=O)(=O)N([C@@H](C)CO)C[C@@H]1C,inactive: 10.7%
22,C[C@H]1CN([C@@H](C)CO)C(=O)c2cc(NC(=O)Nc3ccc(F)cc3)ccc2O[C@@H]1CN(C)Cc1ccc(C(F)(F)F)cc1,inconclusive: 23.9%

# Nothing new here: two of the compounds above.
row,SMILES,CPE inhibition
2,C/C(=N\N=C(N)N)c1cccc([N+](=O)[O-])c1,inactive: 0.629%
3,C[C@H](CO)N1C[C@H](C)[C@H](CN(C)S(=O)(=O)c2ccc(C#N)cc2)OCc2cnnn2CCCC1=O,inconclusive: 76.8%
